# Patent US8722678B2 (priority 2010, dated 2014)
# At least one read-out could not be matched to a standard name with certainty.
# Test system: Phytophthora infestans
# Format: in vivo
# Details: tomato seedlings, sprayed to run-off, inoculated the following day; application rate not given for unstarred values (40 ppm suspension mentioned)
row,Compound,"Test B rating (100 = 100% disease control, 0 = no disease control relative to the controls)"
1,"Cc1cc(C(F)(F)F)nn1CC(=O)N1CCC(c2nc(C=NO)cs2)CC1 [Compound 8, 4-[4-[(hydroxyimino)methyl]-2-thiazolyl]-1-[[5-methyl-3-(trifluoromethyl)-1H-pyrazol-1-yl]acetyl]piperidine]",100%
2,"CC(=NO)c1csc(C2CCN(C(=O)Cn3nc(C(F)(F)F)cc3C)CC2)n1 [Compound 10, 1-[4-[4-[1-(hydroxyimino)ethyl)-2-thiazolyl]-1-piperidinyl]-2-[5-methyl-3-(trifluoromethyl)-1H-pyrazol-1-yl]ethanone]",100%
3,"Cc1cc(C(F)(F)F)nn1CC(=O)N1CCC(c2nc(C(C=Cc3c(F)cccc3F)=NO)cs2)CC1 [Compound 11, 3-(2,6-difluorophenyl)-1-[2-[1-[2-[5-methyl-3-(trifluoromethyl)-1H-pyrazol-1-yl]acetyl]-4-piperidinyl]-4-thiazolyl]-2-propen-1-one 1-oxime]",100%
4,"Cc1cc(C(F)(F)F)nn1CC(=O)N1CCC(c2nc(C(CC(O)c3c(F)cccc3F)=NO)cs2)CC1 (stereo not drawn) [Compound 13, 3-(2,6-difluorophenyl)-3-hydroxy-1-[2-[1-[2-[5-methyl-3-(trifluoromethyl)-1H-pyrazol-1-yl]acetyl]-4-piperidinyl]-4-thiazolyl]-1-propanone 1-oxime]",100%
5,CCOC(=O)/C(=N\O)c1csc(C2CCN(C(=O)Cn3nc(C(F)(F)F)cc3C)CC2)n1 [Compound 14],58%
6,"CON=C(C=Cc1c(F)cccc1F)c1csc(C2CCN(C(=O)Cn3nc(C(F)(F)F)cc3C)CC2)n1 [Compound 19, 3-(2,6-difluorophenyl)-1-[2-[1-[2-[5-methyl-3-(trifluoromethyl)-1H-pyrazol-1-yl]acetyl]-4-piperidinyl]-4-thiazolyl]-2-propen-1-one 1-(O-methyloxime)]",100%
7,"Cc1cc(C(F)(F)F)nn1CC(=O)N1CCC(c2nc(C(CCc3c(F)cccc3F)=NO)cs2)CC1 [Compound 21, 3-(2,6-difluorophenyl)-1-[2-[1-[2-[5-methyl-3-(trifluoromethyl)-1H-pyrazol-1-yl]acetyl]-4-piperidinyl]-4-thiazolyl]-1-propanone 1-oxime]",100%
8,"Cc1cc(C(F)(F)F)nn1CC(=O)N1CCC(c2nc(C=NOC(C)c3ccccc3)cs2)CC1 (stereo not drawn) [Compound 22, 2-[1-[2-[5-methyl-3-(trifluoromethyl)-1H-pyrazol-1-yl]acetyl]-4-piperidinyl]-4-thiazolecarboxaldehyde 4-[O-(1-phenylethyl)oxime]]",100%
9,"CC(=O)ON=C(C=Cc1c(F)cccc1F)c1csc(C2CCN(C(=O)Cn3nc(C(F)(F)F)cc3C)CC2)n1 [Compound 23, 3-(2,6-difluorophenyl)-1-[2-[1-[2-[5-methyl-3-(trifluoromethyl)-1H-pyrazol-1-yl]acetyl]-4-piperidinyl]-4-thiazolyl]-2-propen-1-one 1-(O-acetyloxime)]",100%
